These are yes or no findings as the source states them, for the method shown. In cells and extracts the contact can be indirect. Some results given as binding are weak or reduced against the parent protein; the word gives no strength.
Biological target: intracellular adhesion molecule-1 (ICAM-1) (human (endogenous in SW-480 and HCT-116)) (UniProt P05362)
Assay: co-IP; endogenous proteins in lysates of SW-480 and HCT-116 cells (40 mM Tris-HCl pH 8.0, 120 mM NaCl, 0.1% Nonidet-P40); primary antibody overnight, protein A-agarose 2 h at 4 °C, IgG as control; for c-MET and SRC also after silencing of ICAM-1 or ICAM-1 neutralizing antibody (2 ug/mL)

Protein sequences, listed by entry. Tags and fused reporters are not part of them. Residues count along the entry.
UniProt P05362, residues 28-532: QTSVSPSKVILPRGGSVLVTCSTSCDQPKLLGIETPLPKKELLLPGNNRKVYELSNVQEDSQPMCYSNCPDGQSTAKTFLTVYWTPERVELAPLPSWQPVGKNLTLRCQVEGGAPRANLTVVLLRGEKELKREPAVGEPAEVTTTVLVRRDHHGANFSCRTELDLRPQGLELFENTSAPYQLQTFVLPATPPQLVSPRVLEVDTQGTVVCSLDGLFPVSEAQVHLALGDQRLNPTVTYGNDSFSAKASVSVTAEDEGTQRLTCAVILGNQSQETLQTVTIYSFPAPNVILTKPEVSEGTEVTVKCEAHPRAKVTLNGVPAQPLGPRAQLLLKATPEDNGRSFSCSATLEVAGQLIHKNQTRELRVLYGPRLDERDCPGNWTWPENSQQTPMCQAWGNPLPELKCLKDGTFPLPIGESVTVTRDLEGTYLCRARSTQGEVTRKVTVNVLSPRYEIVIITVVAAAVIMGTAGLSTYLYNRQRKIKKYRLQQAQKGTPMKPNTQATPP
UniProt P08581, residues 25-1390: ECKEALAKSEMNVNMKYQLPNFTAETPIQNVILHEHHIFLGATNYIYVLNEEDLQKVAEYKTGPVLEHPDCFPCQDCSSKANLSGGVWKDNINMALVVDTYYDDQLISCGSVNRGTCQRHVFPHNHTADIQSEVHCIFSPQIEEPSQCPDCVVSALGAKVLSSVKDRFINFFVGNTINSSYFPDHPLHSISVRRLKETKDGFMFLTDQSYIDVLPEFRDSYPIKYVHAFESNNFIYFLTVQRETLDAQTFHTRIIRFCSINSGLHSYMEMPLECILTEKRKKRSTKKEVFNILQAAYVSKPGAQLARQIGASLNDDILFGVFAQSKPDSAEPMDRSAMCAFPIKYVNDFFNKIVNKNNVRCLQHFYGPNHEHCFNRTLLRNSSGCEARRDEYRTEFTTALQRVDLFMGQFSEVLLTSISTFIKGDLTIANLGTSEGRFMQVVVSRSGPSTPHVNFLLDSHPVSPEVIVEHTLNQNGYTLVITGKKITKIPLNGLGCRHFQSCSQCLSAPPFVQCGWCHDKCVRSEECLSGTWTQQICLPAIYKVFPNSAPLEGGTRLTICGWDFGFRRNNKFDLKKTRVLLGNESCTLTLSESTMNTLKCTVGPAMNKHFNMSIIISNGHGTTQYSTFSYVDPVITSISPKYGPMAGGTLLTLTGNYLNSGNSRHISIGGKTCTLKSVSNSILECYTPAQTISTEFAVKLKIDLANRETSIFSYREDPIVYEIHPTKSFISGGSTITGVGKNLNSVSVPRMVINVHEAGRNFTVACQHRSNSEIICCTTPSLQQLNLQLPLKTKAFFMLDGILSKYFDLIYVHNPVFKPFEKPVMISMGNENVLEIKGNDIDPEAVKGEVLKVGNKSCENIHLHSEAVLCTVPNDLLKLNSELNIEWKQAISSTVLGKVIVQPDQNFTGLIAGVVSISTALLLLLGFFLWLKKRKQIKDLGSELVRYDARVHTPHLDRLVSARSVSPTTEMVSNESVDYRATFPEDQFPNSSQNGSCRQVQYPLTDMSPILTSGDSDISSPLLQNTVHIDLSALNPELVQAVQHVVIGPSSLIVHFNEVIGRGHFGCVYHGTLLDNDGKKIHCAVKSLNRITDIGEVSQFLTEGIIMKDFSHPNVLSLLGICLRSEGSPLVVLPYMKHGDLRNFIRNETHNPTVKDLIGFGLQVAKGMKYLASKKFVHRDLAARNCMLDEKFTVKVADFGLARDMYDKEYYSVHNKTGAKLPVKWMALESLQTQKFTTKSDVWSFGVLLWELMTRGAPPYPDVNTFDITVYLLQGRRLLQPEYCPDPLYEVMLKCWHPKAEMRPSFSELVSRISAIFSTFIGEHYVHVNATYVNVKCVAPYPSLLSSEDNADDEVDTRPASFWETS

Substance: tyrosine-protein kinase Met (c-MET) (from UniProt P08581 25-1390) (receptor)
- binding: binds

Source: PMC9054780
